Source: the supplement of paper PMC3545927
Only a part is listed here, and it is no random draw.

Sequences of proteins named here, by UniProt entry; tags and fusion partners are left off.
furin, P09958, UniProt P09958, whole entry: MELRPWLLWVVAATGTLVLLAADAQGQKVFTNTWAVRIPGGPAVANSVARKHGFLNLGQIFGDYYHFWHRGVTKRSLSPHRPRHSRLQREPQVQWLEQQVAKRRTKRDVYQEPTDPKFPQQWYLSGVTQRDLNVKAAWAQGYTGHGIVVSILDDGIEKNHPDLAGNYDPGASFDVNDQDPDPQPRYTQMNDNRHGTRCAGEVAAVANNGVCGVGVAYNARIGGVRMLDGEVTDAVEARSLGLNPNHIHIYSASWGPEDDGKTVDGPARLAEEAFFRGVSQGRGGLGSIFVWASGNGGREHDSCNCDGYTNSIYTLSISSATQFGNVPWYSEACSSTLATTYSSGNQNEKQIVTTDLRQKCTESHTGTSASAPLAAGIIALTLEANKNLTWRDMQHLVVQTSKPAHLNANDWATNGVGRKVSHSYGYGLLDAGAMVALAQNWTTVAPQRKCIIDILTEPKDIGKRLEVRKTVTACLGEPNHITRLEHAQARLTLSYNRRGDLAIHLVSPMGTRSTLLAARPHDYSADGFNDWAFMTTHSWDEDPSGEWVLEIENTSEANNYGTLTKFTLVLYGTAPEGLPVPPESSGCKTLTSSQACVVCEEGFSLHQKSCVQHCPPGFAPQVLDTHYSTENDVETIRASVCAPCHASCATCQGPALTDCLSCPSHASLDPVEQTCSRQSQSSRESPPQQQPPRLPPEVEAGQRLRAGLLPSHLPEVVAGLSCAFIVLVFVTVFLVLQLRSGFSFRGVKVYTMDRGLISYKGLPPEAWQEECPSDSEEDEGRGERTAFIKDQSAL

B1: FS-13 (peptide)
chain: CACGARLRRSAGNASASA
B2: FS-2293 (peptide)
chain: CARQRRQERRAGNASASA
B3: FS-310 (peptide)
chain: CAVKARIKRMAGNASASA
B4: FS-1135 (peptide)
chain: CALKGRPARFAGNASASA
B5: FS-642 (peptide)
chain: CAANHVVKRDAGNASASA
B6: FS-1388 (peptide)
chain: CAQAWRVRRLAGNASASA
B7: FS-1478 (peptide)
chain: CARLCRKRRCAGNASASA
B8: HC481 (peptide)
chain: CAEAACNWTRAGNASASA
B9: FS-1394 (peptide)
chain: CARDWRERRNAGNASASA
B10: FS-812 (peptide)
chain: CAKPARKYRFAGNASASA
B11: HC2173 (peptide)
chain: CAERVTSTWVAGNASASA

Target: furin, P09958
Assay: furin cleavage Z-score vs untreated control; higher = more cleavage, active = 3.5 or more, inactive = 1 or less, 8 variable residues between constant flanks
How it was run: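 Abundance of DNA freed from bead-bound 8-mer peptide–cDNA fusions by purified furin was measured as sequencing read counts after PCR adapter tagging. Cutting ran 7.5, 15 or 30 min in 0.01 ml of 50 mM HEPES pH 7.5 with CaCl2 and NaCl at 1:10 enzyme:substrate. The cleavage Z-score expresses these log counts against furin-free reactions after lowess adjustment and median absolute deviation scaling.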

Sequence | furin cleavage Z-score (7.5 min) | furin cleavage Z-score (15 min) | furin cleavage Z-score (30 min)
B1 | 2.59 | 1.09 | 1.82
B2 | 1.02 | 1.7 | 2.99
B3 | active: 8.88 | active: 10.6 | active: 7.99
B4 | 1.12 | active: 3.63 | active: 3.8
B5 | active: 8.87 | active: 11.8 | active: 8.5
B6 | 1.31 | 1.87 | 2.52
B7 | active: 5.9 | active: 6.48 | active: 7.28
B8 | 1.17 | 3.42 | 1.92
B9 | 2.79 | 1.81 | 2.07
B10 | 2.11 | 2.57 | 2.1
B11 | inactive: -0.173 | inactive: -0.632 | inactive: -2.09

Taken from above:
B7 | furin cleavage Z-score (7.5 min): active: 5.9
B1 | furin cleavage Z-score (30 min): 1.82
